The other results are listed elsewhere or left out. Most entries show no effect beyond the scatter of the controls.

Chains of the proteins cited; added tags and fusions are not shown. Lines headed by an entry give the natural chain unless they say otherwise; changes in a name come on top.
UniProt P28562: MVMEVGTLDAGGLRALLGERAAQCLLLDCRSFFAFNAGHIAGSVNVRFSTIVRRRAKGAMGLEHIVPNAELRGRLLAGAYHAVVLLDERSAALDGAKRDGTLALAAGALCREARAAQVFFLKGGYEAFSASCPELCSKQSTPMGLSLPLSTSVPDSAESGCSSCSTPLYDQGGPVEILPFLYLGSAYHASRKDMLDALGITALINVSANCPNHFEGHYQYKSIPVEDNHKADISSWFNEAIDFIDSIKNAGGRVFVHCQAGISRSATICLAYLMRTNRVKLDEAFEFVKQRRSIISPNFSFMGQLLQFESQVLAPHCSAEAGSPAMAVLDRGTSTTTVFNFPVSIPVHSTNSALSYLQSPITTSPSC
UniProt P17535: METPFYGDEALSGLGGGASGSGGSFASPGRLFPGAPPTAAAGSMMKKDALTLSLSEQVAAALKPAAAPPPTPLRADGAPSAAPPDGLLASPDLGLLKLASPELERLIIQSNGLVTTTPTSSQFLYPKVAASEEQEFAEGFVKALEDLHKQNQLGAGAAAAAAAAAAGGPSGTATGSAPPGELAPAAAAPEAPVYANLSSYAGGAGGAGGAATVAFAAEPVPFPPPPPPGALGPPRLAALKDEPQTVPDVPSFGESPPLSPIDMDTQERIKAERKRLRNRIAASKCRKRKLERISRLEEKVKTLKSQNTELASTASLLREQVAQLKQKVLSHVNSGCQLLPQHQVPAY
UniProt P19367: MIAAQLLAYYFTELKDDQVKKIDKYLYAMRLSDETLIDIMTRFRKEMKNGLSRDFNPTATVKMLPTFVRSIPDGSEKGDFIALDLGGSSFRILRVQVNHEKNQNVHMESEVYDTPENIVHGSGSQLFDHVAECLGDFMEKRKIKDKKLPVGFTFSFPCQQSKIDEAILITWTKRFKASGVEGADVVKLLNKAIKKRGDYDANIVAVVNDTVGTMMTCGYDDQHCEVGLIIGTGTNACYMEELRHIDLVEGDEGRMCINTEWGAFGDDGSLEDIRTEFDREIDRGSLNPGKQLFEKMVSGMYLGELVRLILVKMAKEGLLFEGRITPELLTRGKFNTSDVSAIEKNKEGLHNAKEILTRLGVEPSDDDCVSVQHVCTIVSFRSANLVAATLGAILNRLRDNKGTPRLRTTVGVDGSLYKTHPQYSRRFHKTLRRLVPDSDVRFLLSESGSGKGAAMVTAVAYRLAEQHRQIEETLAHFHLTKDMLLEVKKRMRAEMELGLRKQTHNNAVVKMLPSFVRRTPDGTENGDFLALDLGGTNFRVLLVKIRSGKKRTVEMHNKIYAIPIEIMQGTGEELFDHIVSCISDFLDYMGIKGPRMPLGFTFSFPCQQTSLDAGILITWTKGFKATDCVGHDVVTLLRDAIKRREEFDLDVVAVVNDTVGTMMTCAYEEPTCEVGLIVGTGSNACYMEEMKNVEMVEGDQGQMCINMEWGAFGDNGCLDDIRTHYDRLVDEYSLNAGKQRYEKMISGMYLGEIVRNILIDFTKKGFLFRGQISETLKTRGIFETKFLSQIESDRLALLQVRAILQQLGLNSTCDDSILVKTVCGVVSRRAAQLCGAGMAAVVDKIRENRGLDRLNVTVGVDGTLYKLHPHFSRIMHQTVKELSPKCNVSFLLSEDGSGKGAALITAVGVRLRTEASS
UniProt P15529: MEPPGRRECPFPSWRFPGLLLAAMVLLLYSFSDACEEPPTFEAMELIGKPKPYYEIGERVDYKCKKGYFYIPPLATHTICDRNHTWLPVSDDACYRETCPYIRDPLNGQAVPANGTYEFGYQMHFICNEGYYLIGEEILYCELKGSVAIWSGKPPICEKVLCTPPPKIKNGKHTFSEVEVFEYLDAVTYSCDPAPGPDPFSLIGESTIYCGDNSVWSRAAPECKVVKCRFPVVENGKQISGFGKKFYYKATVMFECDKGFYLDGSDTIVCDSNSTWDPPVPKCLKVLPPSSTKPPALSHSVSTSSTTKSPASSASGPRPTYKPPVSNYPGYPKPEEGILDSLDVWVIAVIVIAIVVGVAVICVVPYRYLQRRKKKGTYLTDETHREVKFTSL
UniProt P15336: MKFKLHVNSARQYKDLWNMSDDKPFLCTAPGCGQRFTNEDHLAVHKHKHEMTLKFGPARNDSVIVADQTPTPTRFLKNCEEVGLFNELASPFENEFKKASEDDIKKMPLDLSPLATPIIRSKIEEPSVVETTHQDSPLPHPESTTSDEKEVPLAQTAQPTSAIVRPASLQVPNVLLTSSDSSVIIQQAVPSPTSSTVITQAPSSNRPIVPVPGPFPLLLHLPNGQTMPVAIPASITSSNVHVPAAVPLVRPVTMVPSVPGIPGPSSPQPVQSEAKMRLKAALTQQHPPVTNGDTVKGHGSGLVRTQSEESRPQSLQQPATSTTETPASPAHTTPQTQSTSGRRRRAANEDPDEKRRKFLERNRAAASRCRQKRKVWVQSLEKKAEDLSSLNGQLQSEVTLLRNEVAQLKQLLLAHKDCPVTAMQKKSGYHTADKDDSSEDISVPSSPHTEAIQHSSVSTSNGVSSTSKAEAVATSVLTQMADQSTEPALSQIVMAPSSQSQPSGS
UniProt P16402, whole entry: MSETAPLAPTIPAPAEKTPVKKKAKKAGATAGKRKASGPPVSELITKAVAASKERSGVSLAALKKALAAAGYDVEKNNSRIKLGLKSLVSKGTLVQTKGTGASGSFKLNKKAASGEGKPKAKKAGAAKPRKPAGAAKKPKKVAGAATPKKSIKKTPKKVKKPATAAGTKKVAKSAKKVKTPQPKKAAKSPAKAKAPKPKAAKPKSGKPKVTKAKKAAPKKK
UniProt P25325: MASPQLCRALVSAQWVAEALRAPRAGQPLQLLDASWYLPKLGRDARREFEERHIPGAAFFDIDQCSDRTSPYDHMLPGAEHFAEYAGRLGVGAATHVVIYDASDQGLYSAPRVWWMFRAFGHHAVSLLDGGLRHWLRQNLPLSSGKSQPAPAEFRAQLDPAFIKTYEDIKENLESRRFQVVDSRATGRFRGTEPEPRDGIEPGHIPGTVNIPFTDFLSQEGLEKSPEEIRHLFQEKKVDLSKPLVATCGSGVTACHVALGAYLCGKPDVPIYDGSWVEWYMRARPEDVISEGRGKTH
UniProt P22532: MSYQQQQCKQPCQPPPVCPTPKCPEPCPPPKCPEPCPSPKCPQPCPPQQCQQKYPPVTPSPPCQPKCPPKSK
UniProt P24752: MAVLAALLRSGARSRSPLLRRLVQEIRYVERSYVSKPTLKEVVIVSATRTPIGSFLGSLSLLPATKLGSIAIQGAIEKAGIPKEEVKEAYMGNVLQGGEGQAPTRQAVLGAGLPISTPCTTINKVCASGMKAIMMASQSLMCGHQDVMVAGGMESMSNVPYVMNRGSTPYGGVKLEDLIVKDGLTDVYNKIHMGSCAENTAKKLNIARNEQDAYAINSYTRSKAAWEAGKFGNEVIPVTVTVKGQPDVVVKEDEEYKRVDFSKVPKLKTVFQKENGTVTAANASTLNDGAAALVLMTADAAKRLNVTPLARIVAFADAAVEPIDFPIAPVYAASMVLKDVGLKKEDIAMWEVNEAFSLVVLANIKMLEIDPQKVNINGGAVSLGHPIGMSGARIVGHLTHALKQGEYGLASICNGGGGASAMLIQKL

Drawing on the supplement of paper PMC12819154, “High-throughput peptide-centric local stability assay extends protein–ligand identification to membrane proteins, tissues and bacteria” (Nature Structural & Molecular Biology, 2025), this text covers log2 fold change for nine targets.

Compound in this test: Cc1nc(Nc2ncc(C(=O)Nc3c(C)cccc3Cl)s2)cc(N2CCN(CCO)CC2)n1 [dasatinib]
Description: log2 fold change of tryptic peptide abundance, ligand vs vehicle (limited proteolysis) (log2 ratio); higher = more trypsin-susceptible (destabilized). The settings on record: ligand concentration: 5 uM; sample: K562 cleared lysate.
With “UniProt P28562 (peptide sequence: AAQVFFLK, peptide start residue: 115)”, the log2 fold change amounted to 0.503.

“JUND (peptide sequence: LASPELER, peptide start residue: 71) (UniProt P17535)”: the log2 fold change came out at 0.0686.

As to “HK1 (peptide sequence: GKFNTSDVSAIEKNK, peptide start residue: 332) (UniProt P19367)”, the log2 fold change was 0.861.

Consider “CD46 (peptide sequence: GTYLTDETHR, peptide start residue: 376) (UniProt P15529)”, for which the log2 fold change was -0.166.

In the case of “ATF2 (peptide sequence: KSGYHTADK, peptide start residue: 426) (UniProt P15336)”, the log2 fold change was -0.489.

In the case of “HIST1H1D (peptide sequence: KASGPPVSELITK, peptide start residue: 34) (UniProt P16402)”, the log2 fold change came to 0.0716.

On to “MPST (peptide sequence: HIPGAAFFDIDQCSDR, peptide start residue: 53) (UniProt P25325)”, for which the log2 fold change amounted to 0.297.

Turning to “UniProt P22532 (peptide sequence: YPPVTPSPPCQPKCPPKSK, peptide start residue: 54)”, the log2 fold change was -0.34.

For “ACAT1 (peptide sequence: LEDLIVKDGLTDVYNK, peptide start residue: 175) (UniProt P24752)”, the log2 fold change was found to be 0.148.
